Data reported in paper PMC5672003.
Results are given in words; binding and its absence hold for the method and conditions named. Some entries that bind do so weakly or less than the wild type.

Molecular target: T1, …1 (Arabidopsis (endogenous in leaves)) (UniProt P32961)
T1 sequence: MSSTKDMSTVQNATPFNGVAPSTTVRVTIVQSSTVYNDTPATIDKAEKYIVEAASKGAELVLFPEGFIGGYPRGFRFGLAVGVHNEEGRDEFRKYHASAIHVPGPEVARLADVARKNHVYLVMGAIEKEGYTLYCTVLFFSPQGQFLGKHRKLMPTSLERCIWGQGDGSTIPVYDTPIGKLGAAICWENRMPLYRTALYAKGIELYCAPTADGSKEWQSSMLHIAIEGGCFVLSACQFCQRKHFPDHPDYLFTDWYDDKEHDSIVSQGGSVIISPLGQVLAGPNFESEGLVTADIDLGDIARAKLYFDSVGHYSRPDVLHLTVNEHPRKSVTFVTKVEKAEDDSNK
Experiment: SEC; protein correlation profiling: cholate-solubilized Arabidopsis leaf microsomal proteins on Superdex 200 10/300 GL or Superose 6 10 x 300 GL at 6 °C; 50 mM HEPES-KOH pH 7.8, 100 mM NaCl, 10 mM MgCl2, 5% glycerol, 0.1% sodium cholate; fractions quantified by label-free LC-MS/MS; two biological replicates

B1: NIT3 (enzyme, UniProt P46010 1-346)
chain: MSSTEEMSSVKNTTQVIGVDPSSTVRVTIVQSSTVYNDTPATLDKAEKFIVEAASKGAKLVLFPEAFIGGYPRGFRFGLAVGVHNEEGRDEFRNYHASAIKVPGPEVERLAELAGKNNVHLVMGAIEKDGYTLYCTALFFSPQGQFLGKHRKVMPTSLERCIWGQGDGSTIPVYDTPIGKIGAAICWENRMPLYRTALYAKGIEIYCAPTADYSLEWQASMIHIAVEGGCFVLSAHQFCKRREFPEHPDYLFNDIVDTKEHDPTVSGGGSVIISPLGKVLAGPNYESEGLVTADLDLGDIARAKLYFDVVGHYSKPDIFNLTVNEHPKKPVTFMTKVEKAEDESNK
- binding: binds
